# Experimental data reported in paper PMC3695902.
# Results are given in words; binding and its absence hold for the method and conditions named. Binding seen in cells or lysates may run through a third protein. A result given as binding can be weak or reduced; the word gives no strength. Tags and fused reporters may be left off the sequences shown.
# Experiments:
# [1] = target: T1, GST-SIAH1 truncation, residues 91-157 (human) (UniProt Q8IUQ4); assay: pull-down; GST fusion protein bound to glutathione sepharose beads pulls down S-tagged protein from bacterial lysate; Western blot with HRP-conjugated anti-S-tag antibody; beads alone and GST-coated beads as controls; only the target purified
# T1 sequence: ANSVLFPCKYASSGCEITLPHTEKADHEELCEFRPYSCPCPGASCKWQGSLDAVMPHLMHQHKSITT
# [2] = target: T2, AUP1-GST fusion protein (residues 1-410) (human) (UniProt Q9Y679); assay: as above
# T2 sequence: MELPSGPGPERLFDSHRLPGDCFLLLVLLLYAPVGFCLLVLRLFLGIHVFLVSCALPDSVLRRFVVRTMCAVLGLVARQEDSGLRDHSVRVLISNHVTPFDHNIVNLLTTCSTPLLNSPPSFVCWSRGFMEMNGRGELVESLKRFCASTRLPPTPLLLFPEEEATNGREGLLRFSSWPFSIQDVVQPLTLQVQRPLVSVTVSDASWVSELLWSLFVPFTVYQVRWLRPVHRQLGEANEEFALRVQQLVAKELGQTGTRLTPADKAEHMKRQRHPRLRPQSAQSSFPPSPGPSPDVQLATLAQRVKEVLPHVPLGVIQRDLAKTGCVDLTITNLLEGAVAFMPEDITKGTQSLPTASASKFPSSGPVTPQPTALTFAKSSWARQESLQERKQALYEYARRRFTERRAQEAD
substance,measurement,setting,value
"S-tagged MOR-IL2 (residues 166-187, pET30a) (human) (domain or fragment)",binding,[1],binds
same,binding,[2],binds
